PMC4530586, “STIL binding to Polo-box 3 of PLK4 regulates centriole duplication” (eLife, 2015)
No constants are given. Whether binding was seen depends on the method and setting. Binding seen in cells or lysates may run through a third protein. A yes stands for co-enrichment or nearness to the bait. Other partners may have been found. Sequences can lack the tags named with a protein.

Amino acid sequences for entries named in this document (tags omitted).
UniProt O94986: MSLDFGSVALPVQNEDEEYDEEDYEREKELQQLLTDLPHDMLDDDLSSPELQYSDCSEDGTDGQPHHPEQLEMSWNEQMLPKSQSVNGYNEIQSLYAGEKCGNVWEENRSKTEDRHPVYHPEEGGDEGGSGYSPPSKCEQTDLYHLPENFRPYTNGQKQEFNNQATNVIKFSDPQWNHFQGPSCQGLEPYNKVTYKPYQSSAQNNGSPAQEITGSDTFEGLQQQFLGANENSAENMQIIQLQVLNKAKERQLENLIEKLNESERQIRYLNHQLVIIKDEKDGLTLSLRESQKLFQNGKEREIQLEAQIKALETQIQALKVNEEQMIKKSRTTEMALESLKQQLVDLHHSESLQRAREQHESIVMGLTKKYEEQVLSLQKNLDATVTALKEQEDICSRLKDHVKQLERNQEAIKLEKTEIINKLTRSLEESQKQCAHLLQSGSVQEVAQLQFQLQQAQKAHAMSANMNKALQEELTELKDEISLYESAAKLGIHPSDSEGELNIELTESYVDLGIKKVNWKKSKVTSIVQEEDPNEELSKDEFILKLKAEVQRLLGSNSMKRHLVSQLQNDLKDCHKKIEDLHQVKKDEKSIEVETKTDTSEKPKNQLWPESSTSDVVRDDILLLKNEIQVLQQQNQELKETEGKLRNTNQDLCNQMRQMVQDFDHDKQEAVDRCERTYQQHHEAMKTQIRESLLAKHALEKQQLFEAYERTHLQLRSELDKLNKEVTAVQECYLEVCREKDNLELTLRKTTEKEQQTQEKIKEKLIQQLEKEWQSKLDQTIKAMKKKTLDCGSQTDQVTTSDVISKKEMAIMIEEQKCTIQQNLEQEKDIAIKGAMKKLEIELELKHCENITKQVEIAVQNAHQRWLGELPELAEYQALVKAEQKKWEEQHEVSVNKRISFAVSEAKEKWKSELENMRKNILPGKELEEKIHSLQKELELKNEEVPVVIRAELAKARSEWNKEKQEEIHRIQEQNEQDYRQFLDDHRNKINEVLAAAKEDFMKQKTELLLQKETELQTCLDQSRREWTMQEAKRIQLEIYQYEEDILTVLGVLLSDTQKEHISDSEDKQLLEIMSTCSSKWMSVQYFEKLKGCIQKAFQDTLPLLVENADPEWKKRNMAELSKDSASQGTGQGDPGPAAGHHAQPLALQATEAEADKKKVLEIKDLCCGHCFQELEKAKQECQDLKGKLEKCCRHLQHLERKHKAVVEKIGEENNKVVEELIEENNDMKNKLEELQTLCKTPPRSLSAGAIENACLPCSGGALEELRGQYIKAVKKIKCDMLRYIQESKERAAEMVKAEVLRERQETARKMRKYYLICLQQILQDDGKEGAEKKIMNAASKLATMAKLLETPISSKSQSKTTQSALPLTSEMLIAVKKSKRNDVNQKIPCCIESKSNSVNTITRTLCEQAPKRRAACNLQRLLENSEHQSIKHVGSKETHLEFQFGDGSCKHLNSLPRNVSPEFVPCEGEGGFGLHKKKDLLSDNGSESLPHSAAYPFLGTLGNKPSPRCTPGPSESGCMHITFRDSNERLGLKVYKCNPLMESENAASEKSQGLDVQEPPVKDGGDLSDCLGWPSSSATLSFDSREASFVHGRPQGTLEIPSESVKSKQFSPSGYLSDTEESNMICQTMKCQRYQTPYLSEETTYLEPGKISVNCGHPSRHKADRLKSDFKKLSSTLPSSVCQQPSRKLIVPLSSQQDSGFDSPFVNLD

Biological target: T1, S-peptide-EGFP-tagged PLK4 fragment (residues 570–970) comprising the three Polo-boxes PB1-3 (human) (UniProt O00444)
T1 sequence: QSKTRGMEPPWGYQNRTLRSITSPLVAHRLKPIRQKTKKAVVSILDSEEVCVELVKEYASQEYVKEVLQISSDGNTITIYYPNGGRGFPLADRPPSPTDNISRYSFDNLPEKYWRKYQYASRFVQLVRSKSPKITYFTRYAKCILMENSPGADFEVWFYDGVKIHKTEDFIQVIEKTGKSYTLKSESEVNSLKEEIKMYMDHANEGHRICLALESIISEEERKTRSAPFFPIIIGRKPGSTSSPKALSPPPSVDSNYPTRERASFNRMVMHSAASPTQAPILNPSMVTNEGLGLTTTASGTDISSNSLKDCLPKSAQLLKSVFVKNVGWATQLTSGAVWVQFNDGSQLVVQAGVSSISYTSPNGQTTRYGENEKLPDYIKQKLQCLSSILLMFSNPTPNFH
Test: affinity purification with mass spectrometry; S-peptide pulldown (S-protein agarose) of the S-peptide-EGFP-PLK4 fragment from extracts of U2OS Flp-In T-REx cells induced 24 hr with tetracycline; co-purifying proteins found by mass spectrometry

Cep152 (from UniProt O94986 1-1710)
binding: binds
